Test results published in the supplement of paper PMC10849652.
Some of the results follow.

By UniProt entry, the sequences of proteins in these tests, tags left out. Where a name states a change or a piece, a line headed by the entry shows the natural chain unless it says otherwise.
UniProt Q9UN36: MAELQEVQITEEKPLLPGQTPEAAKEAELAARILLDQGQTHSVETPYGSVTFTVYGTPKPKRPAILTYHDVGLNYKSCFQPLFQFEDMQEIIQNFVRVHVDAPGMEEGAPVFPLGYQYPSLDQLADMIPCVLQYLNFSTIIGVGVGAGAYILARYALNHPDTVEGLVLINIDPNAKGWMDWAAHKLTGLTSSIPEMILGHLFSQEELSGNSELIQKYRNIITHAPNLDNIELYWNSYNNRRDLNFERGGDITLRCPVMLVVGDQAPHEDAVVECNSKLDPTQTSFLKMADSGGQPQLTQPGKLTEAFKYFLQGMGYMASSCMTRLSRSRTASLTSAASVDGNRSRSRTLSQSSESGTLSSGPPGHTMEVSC
UniProt Q6P3R8: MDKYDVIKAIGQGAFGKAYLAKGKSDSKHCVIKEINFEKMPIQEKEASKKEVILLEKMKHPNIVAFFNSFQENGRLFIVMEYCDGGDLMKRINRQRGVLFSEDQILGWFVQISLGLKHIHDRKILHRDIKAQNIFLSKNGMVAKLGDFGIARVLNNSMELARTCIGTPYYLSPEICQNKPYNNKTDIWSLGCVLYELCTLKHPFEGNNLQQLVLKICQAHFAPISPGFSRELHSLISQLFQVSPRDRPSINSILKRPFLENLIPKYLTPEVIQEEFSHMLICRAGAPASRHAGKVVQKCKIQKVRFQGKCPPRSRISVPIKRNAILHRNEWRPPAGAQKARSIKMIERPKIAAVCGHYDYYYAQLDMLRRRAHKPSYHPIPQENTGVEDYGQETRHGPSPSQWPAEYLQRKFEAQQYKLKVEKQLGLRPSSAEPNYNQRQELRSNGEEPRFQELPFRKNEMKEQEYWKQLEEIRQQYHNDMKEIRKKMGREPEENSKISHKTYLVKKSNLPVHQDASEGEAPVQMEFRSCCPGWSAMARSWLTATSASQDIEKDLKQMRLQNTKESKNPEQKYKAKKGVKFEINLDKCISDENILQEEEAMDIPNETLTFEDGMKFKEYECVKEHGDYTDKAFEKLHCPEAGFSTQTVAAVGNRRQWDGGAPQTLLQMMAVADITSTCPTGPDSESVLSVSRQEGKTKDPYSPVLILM
UniProt Q86UT6, whole entry, looked up: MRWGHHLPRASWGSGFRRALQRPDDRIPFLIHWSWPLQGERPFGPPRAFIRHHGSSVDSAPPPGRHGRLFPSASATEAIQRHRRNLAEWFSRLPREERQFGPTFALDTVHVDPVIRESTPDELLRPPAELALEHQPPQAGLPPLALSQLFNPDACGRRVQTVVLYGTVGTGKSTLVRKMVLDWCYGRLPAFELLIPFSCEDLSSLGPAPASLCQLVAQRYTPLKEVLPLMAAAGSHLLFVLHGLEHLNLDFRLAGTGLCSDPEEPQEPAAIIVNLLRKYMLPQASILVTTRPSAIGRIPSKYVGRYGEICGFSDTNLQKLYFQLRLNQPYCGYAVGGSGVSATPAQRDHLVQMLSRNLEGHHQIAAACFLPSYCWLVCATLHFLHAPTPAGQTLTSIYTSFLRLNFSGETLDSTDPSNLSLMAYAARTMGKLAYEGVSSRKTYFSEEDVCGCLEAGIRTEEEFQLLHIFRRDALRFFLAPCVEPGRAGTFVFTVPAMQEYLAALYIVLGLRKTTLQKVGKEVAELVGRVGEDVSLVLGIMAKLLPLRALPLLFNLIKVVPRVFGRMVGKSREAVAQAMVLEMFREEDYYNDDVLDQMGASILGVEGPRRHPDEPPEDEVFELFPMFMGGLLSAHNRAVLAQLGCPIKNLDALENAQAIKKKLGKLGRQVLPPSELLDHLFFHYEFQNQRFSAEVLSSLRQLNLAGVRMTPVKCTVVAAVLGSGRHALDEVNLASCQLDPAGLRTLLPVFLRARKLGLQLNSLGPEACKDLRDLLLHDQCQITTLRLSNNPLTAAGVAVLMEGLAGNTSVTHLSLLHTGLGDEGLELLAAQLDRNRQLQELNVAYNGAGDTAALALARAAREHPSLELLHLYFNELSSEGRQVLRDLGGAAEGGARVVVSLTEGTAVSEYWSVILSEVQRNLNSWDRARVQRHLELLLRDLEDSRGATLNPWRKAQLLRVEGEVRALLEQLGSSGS
UniProt Q9NV92: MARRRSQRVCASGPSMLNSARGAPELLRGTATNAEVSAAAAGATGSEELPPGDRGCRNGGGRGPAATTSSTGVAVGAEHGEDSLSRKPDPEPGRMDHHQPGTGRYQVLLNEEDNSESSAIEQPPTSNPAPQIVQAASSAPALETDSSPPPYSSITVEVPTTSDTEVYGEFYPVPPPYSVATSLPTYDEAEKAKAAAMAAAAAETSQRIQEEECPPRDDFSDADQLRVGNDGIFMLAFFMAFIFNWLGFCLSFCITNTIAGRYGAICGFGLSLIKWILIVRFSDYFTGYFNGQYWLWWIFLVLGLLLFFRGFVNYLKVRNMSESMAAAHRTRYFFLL
UniProt Q8NEJ9: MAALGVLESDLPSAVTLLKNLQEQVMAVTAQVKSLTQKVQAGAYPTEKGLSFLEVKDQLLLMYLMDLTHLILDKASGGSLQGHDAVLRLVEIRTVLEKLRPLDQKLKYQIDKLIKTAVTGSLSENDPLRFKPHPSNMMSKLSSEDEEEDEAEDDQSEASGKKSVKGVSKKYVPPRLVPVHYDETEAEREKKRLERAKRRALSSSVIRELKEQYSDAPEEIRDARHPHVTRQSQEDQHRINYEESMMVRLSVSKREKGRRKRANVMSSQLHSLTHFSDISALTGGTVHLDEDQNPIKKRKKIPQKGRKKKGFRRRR
UniProt P51957: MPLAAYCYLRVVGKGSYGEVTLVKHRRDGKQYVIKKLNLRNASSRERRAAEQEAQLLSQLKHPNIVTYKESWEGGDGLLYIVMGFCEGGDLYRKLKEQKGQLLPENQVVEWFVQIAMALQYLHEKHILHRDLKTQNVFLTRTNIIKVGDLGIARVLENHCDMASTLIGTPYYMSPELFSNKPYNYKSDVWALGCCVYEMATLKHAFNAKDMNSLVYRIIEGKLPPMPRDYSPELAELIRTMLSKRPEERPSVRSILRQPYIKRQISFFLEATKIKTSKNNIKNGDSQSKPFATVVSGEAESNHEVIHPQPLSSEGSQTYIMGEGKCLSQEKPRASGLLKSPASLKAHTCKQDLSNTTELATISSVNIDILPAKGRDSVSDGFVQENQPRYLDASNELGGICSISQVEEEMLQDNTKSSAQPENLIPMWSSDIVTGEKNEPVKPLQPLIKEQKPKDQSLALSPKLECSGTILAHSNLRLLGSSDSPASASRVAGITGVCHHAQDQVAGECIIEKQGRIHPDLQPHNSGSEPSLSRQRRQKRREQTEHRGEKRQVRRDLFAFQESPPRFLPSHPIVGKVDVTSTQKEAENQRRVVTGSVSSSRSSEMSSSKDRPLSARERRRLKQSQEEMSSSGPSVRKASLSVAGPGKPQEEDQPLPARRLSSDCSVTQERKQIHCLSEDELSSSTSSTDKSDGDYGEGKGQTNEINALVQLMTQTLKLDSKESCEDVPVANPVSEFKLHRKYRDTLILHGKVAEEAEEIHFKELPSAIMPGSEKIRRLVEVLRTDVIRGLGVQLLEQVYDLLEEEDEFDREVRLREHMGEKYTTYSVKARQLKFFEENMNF
UniProt Q92859: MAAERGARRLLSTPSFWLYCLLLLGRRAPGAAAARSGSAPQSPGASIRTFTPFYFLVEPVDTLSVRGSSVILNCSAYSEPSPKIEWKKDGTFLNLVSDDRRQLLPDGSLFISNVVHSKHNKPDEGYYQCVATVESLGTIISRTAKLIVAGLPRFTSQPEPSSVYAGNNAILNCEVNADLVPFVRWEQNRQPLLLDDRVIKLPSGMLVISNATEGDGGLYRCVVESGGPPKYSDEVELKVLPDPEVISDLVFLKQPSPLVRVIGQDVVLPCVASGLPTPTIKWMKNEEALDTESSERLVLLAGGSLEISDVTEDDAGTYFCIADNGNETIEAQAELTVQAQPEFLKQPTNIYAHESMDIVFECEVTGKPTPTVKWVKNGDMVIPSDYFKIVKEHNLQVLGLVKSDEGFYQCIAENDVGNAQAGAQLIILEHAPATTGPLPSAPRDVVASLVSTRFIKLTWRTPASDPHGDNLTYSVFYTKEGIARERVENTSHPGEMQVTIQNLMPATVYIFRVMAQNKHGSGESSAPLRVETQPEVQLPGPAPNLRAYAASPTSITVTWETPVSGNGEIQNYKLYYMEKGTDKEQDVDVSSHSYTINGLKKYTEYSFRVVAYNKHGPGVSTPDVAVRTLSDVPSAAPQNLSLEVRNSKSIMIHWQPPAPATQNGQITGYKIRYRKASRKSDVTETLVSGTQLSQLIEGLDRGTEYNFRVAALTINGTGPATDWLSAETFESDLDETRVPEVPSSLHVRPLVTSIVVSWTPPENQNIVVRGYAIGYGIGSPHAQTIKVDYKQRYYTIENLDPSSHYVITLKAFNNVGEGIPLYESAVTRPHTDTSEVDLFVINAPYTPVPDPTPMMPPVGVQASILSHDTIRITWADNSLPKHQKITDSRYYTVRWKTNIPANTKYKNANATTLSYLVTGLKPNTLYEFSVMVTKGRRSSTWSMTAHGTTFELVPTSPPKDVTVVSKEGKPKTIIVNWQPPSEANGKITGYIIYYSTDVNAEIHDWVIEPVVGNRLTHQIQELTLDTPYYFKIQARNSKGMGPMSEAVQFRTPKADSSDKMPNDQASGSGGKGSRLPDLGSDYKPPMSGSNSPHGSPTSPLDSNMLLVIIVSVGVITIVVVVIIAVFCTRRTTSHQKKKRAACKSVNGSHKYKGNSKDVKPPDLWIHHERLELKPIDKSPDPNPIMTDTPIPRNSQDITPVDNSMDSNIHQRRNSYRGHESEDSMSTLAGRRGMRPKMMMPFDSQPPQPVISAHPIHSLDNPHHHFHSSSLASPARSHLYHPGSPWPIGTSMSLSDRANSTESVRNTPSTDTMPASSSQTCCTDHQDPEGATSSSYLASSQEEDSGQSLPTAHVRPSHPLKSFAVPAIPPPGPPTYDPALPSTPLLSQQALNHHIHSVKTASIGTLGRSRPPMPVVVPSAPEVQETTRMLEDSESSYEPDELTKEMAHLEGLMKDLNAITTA
UniProt Q9C000: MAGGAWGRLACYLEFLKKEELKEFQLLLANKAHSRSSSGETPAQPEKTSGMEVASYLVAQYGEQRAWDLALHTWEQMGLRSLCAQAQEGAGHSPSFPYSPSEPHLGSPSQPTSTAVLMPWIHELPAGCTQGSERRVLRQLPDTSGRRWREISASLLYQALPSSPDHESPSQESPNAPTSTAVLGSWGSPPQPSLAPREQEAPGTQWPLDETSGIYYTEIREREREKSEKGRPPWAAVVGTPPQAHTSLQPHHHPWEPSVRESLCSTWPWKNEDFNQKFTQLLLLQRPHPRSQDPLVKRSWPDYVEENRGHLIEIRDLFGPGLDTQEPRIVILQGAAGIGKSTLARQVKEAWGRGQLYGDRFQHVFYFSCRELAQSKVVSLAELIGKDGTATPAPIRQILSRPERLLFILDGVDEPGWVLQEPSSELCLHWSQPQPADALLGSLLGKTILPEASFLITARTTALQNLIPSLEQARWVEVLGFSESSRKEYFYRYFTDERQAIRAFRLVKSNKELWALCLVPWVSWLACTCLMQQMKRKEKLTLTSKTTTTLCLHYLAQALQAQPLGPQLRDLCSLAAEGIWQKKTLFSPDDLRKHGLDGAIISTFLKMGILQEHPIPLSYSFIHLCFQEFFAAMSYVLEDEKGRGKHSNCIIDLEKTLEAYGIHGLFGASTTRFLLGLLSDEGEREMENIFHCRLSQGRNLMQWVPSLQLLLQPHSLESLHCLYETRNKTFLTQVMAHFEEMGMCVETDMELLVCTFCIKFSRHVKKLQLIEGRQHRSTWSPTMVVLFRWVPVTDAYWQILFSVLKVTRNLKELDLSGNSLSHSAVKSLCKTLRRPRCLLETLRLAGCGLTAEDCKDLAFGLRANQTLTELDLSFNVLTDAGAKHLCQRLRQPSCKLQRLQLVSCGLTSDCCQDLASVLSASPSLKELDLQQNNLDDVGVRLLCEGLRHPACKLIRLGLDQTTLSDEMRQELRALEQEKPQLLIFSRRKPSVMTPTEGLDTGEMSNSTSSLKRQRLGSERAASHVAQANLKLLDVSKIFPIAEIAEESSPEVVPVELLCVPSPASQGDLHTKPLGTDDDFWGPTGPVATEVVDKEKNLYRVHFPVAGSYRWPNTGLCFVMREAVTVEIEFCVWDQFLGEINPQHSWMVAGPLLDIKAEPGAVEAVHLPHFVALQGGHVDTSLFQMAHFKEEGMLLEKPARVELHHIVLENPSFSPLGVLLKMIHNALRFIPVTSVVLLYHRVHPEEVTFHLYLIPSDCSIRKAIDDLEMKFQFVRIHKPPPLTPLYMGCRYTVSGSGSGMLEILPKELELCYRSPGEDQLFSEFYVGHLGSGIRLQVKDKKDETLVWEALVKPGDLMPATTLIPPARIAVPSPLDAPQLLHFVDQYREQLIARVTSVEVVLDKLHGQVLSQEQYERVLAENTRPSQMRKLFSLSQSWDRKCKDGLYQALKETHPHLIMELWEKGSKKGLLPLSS
UniProt O43677, whole entry, looked up: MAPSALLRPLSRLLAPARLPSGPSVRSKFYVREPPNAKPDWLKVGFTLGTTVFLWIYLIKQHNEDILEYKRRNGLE

Experiments:
Assay in all cases: log2 fold change, soluble protein after heating vs DMSO (PISA); higher = thermal stabilisation; K562 lysate, 10 uM; active = over 0.2 and 3.5 SD of the protein, either way, in both replicates (recomputed)
erlotinib = compound: C#Cc1cccc(Nc2ncnc3cc(OCCOC)c(OCCOC)cc23)c1 [erlotinib]
Outline: (§1)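 Values give the log-two fold change in thermal stability against solvent controls, from duplicates. Crude K562 extract at 1 mg/mL protein, made by dounce homogenisation in PBS pH 7.4 with 1 mM MgCl2, was treated with 10 μM compound for 30 min. After 3 min heating across 48°C-58°C, aliquots were pooled, adjusted to 0.5% NP-40 at 4°C and centrifuged at 21,000xg for 90 min. The supernatant was measured by TMTpro 16plex LC-MS/MS with channel sums equalised.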

[1] = compound: C/C(=N\NC(=O)C1=CC(=CC=C1)S(=O)(=O)N2CCOCC2)/C3=C(C=CC(=C3)Cl)O
Outline: as §1

[2] = compound: C1=CC(=CC=C1C2=NC3=C(N2)C=C(C=C3)C(=O)N)OC4=CC=C(C=C4)Cl
Outline: as §1

[3] = compound: C1=CC2=C(C=CC(=C2)/C=C\3/C(=O)NC(=NCC4=CC=CS4)S3)N=C1
Outline: as §1

[4] = compound: C1=CC=C(C=C1)C2=NC(=C(N2)C3=CC=NC=C3)C4=CC(=C(C=C4)Cl)O
Outline: as §1

[5] = compound: C1=CC=C2C(=C1)C3=NNC4=CC=CC(=C43)C2=O
Outline: as §1

[6] = compound: C1CCN(C1)C(=O)NC2=CC=CC(=C2)NC3=NC=C(C(=N3)NCCC4=CN=CN4)Br
Outline: as §1

[7] = compound: C1CN(CCC1(CC2=CC=C(C=C2)Cl)N)C3=NC=NC4=C3C=CN4
Outline: as §1

IRAK-1-4 Inhibitor I = compound: C1COCCN1CCN2C3=CC=CC=C3N=C2NC(=O)C4=CC(=CC=C4)[N+](=O)[O-] [IRAK-1-4 Inhibitor I]
Outline: as §1

[8] = compound: CC(=O)c1cnc2ccc(-c3cc(Cl)c(O)c(Cl)c3)nc2c1N[C@H]1CC[C@H](CN(C)C)CC1
Outline: as §1

ralimetinib = compound: CC(C)(C)Cn1c(N)nc2ccc(-c3[nH]c(C(C)(C)C)nc3-c3ccc(F)cc3)nc21 [ralimetinib]
Outline: as §1

[9] = compound: CC(C)(O)CC(=O)NCCn1ccc2ncnc(Nc3ccc(Oc4cccc(C(F)(F)F)c4)c(Cl)c3)c21
Outline: as §1

[10] = compound: CC(C)C1=C2N=C(C=C(N2N=C1)NCC3=CC=CC=C3)NCCCCCCN
Outline: as §1

[11] = compound: CC1=C(C2=C(C=C1)C(=O)C3=CC=CC=C3N2CCCN)C
Outline: as §1

[12] = compound: CC1=C(C=C(C=C1)NC(=O)C2=CC(=CC=C2)N(C)C)NC(=O)C3=CC=C(C=C3)O
Outline: as §1

[13] = compound: CC1=CC=C(C=C1)SC2=C3C=C(SC3=CN=C2)C(=O)N
Outline: as §1

[14] = compound: CC1=C(C(CC(=O)N1)C2=CC=C(C=C2)C(F)(F)F)C(=O)NC3=C(C=C4C(=C3)C=NN4)F
Outline: as §1

[15] = compound: CC1=C(C=C(C=C1)NC(=O)C2=CC(=CC=C2)C(C)(C)C#N)NC3=CC4=C(C=C3)N=CN(C4=O)C
Outline: as §1

[16] = compound: C1=CC2=NC=CN=C2C=C1/C=C/3\C(=O)NC(=O)S3
Outline: as §1

ibrutinib = compound: C=CC(=O)N1CCC[C@@H](n2nc(-c3ccc(Oc4ccccc4)cc3)c3c(N)ncnc32)C1 [ibrutinib]
Outline: as §1

Measured: log2 fold change

NDRG2 isoform 6 (UniProt Q9UN36)
inactive: erlotinib -0.025 | [1] 0.038 | [2] 0.035 | [3] 0.273 | [4] -0.17 | [5] -0.209 | [6] -0.05 | [7] -0.075 | IRAK-1-4 Inhibitor I 0.004 | [8] -0.227 | ralimetinib 0.127 | [9] 0.046 | [10] -0.043 | [11] 0.023 | [12] -0.02 | [13] -0.362

NEK5 (UniProt Q6P3R8)
inactive: [1] -0.018 | [3] 0.056 | [4] -0.013 | [5] -0.018 | [6] -0.047 | [7] 0.015 | IRAK-1-4 Inhibitor I 0.152 | [8] -0.085 | ralimetinib 0.203 | [9] -0.122 | [14] 0.05 | [11] 0.02 | [12] -0.051 | [13] -0.001

NLRX1 (UniProt Q86UT6)
inactive: erlotinib 0.013 | [1] 0.015 | [2] 0.149 | [3] -0.097 | [5] -0.035 | [6] 0.068 | [7] -0.098 | [10] -0.016

NDFIP2 (UniProt Q9NV92)
inactive: [4] 0.026 | IRAK-1-4 Inhibitor I -0.049 | ralimetinib -0.003 | [9] -0.152 | [14] -0.013 | [15] -0.002 | [12] 0.009

NGDN (UniProt Q8NEJ9)
inactive: erlotinib -0.013 | [2] -0.108 | [4] -0.006 | [6] -0.342 | [7] 0.348 | IRAK-1-4 Inhibitor I -0.067 | [8] -0.049 | ralimetinib 0.053 | [9] 0.009 | [10] -0.091 | [14] -0.032 | [15] -0.012 | [12] 0.047 | [13] 0.063

Quoted from above (two entries):
NDRG2 isoform 6 (UniProt Q9UN36)
inactive: erlotinib -0.025 | [1] 0.038 | [2] 0.035 | [3] 0.273 | [4] -0.17 | [5] -0.209 | [6] -0.05 | [7] -0.075 | IRAK-1-4 Inhibitor I 0.004 | [8] -0.227 | ralimetinib 0.127 | [9] 0.046 | [10] -0.043 | [11] 0.023 | [12] -0.02 | [13] -0.362

NEK5 (UniProt Q6P3R8)
inactive: [1] -0.018 | [3] 0.056 | [4] -0.013 | [5] -0.018 | [6] -0.047 | [7] 0.015 | IRAK-1-4 Inhibitor I 0.152 | [8] -0.085 | ralimetinib 0.203 | [9] -0.122 | [14] 0.05 | [11] 0.02 | [12] -0.051 | [13] -0.001

The results go on.

NIN isoform 7 (UniProt Q8N4C6)
inactive: erlotinib -0.056 | [2] -0.039 | [4] 0.035 | IRAK-1-4 Inhibitor I -0.022 | [8] 0.09 | ralimetinib 0.071 | [9] -0.043 | [10] -0.065 | [15] -0.104 | [12] 0.011 | [13] -0.086

NEK4 (UniProt P51957)
inactive: [1] -0.128 | [3] -0.005 | [5] 0.073

NEO1 (UniProt Q92859)
inactive: [16] -0.1 | ibrutinib -0.291

NKAPD1 isoform 2 (UniProt Q6ZUT1)
inactive: erlotinib -0.032 | [2] 0.002 | [10] 0.025 | [14] -0.028

NLRP1 (UniProt Q9C000)
inactive: erlotinib -0.048 | [2] -0.888 | [4] 0.665 | [6] 0.442 | [7] 0.055 | IRAK-1-4 Inhibitor I 0.136 | ralimetinib -0.133 | [9] 0.067 | [10] 0.205 | [11] 0.283 | [15] 0.295 | [12] -0.25

NDUFC1 (UniProt O43677)
inactive: erlotinib -0.047 | [2] -0.089 | [4] -0.079 | [6] 0 | [7] 0.068 | IRAK-1-4 Inhibitor I 0.006 | ralimetinib 0.008 | [9] 0.1 | [10] -0.01 | [11] 0.002 | [12] -0.019

NEURL4 (UniProt Q96JN8)
inactive: erlotinib -0.147 | [1] -0.018 | [2] -0.069 | [3] -0.174 | [5] -0.001 | [6] 0.035 | [7] -0.022 | [8] -0.096 | [10] -0.016 | [11] 0 | [15] 0.013 | [13] 0.048
